Experimental findings from PubChem BioAssay AID2685 (National Center for Advancing Translational Sciences (NCATS), 2010) are described below.

This assay in a line: qHTS Assay for Lipid Storage Modulators in Drosophila S3 Cells.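 As to cell number change: cells counted by Cell Tracker Red CMTPX staining in the red channel.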 As to conditions: BODIPY lipid droplet fluorescence, 18-24 h; for cell number change: measured here: cell count max response, cells fed with added oleic acid. Put shortly: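 Drosophila S3 cells loaded with oleic acid (400 uM, as added) and compounds at several concentrations; lipid droplets imaged by 488-nm laser-scanning cytometry, 500–530 nm intensity and object ratio to cell channel. Percent activity normalized to 20 uM Triacsin C.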

Setting [1] is: measured here: lipid fluorescence (Fed channel) AC50, cells fed with added oleic acid.
Where [2] appears, read: measured here: cell number channel AC50, cells fed with added oleic acid.

SMILES strings stand for the structures. The list shows a part of the results. Shown are side measurements of this screen, not its main read-out; they come without a call. Compounds called inactive in the main read-out are mostly missing here. The note in brackets gives the kind of curve behind each potency; many fits are weak.

Consider `Cc1sc2nc(CSC(C)C(=O)Nc3ccccn3)[nH]c(=O)c2c1C` (stereo not drawn), for which the cell number change came to 2.32%. Moreover, the AC50 under setting [1] is 14.6 µM [falling, single point].
As for `CCCNC(=S)N(Cc1cc2cc(C)ccc2n2nnnc12)CC(C)(C)CN(C)C`, the AC50 under setting [1] was 0.58 µM [rising, single point].
For the molecule `CCOC(=O)Nc1ccc2c(CN3CCN(S(=O)(=O)c4ccc(C(C)C)cc4)CC3)cc(=O)oc2c1`, the cell number change was 9.92%. Under setting [1], the AC50 was 10.3 µM [rising, partial curve, poor fit].
With `CC1CCCCC1NC(=O)COC(=O)Cc1ccc(Br)cc1` (stereo not drawn), the cell number change was -1.89%.
In the case of `CCN(C(=O)C1CCCCC1)c1nnc(-c2cccnc2)s1`, the cell number change is 0.769%.
For the molecule `O=C(NCCc1ccc2c(c1)OCO2)C1CCN(S(=O)(=O)c2ccc(Cl)cc2)CC1`, the cell number change was found to be 16.1%. In addition, the AC50 under setting [1] is 0.82 µM [rising, full curve, poor fit].
Regarding `CCn1c(=NC(=O)CS(=O)(=O)c2ccc(F)cc2)sc2cccc(OC)c21`, the cell number change was -0.693%. For the same molecule, the AC50 under setting [2] is 0.731 µM [rising, full curve, poor fit].
Take `Cc1nc2ccccc2cc1C(=O)NCc1ccco1`: the cell number change came out at 45.3%. The AC50 under setting [2] is 16.4 µM [rising, single point].
In the case of `CC(C)(C)NC(=O)c1ccc2nccnc2c1`, the cell number change amounted to 16.7%. The AC50 under setting [1] is 18.4 µM [rising, single point].
For `NC(=O)CCc1c[nH]c2ccccc12`, the AC50 under setting [2] was 0.103 µM [rising, full curve, poor fit].
Regarding `CCC(C)C(NC=C1C(=O)OC(C)(C)OC1=O)C(=O)O` (stereo not drawn), the cell number change is -46.8%. The AC50 under setting [2] was 2.31 µM [falling, full curve]. The AC50 under setting [1] is 25.9 µM [falling, partial curve].
Take `COc1ccc(CNC(=O)COC(=O)CN2C(=O)COc3ccccc32)cc1`: the cell number change was 65%. Under setting [2], the AC50 is 14.6 µM [rising, partial curve].
For the molecule `COc1ccc(CCN(C)C(=O)c2c(C)nn(CC(C)C)c2Cl)cc1OC`, the cell number change was -1.08%. The AC50 under setting [1] is 29.1 µM [rising, single point].
As for `Cc1cccc(C)c1NC(=O)CNc1ncnc2sc(C)c(C)c12`, the cell number change stood at 9.26%. The AC50 under setting [1] is 0.103 µM [rising, full curve, poor fit].
Turning to `O=C(NC1CCCCC1)c1cc(S(=O)(=O)N2CCCCC2)ccc1N1CCOCC1`, the cell number change worked out at 2.59%. In addition, the AC50 under setting [1] is 0.00461 µM [falling, full curve, poor fit].
Consider `CC1(C)CC(=O)c2c(Cc3ccccc3)noc2C1`, for which the cell number change came to 25.5%. The AC50 under setting [2] is 0.366 µM [rising, full curve].
Regarding `CCOc1ccc(-c2nnc(N3CCOCC3)c3ccccc23)cc1`, the cell number change worked out at 21.1%. Besides, under setting [2], the AC50 is 6.51 µM [rising, single point].
In the case of `O=C(CSc1cccc2cccnc12)N/N=C/c1cccc(O)c1`, under setting [1], the AC50 was 20.6 µM [rising, single point].
For `CC1Cc2ccccc2N1C1=CC(=O)CC(C)(C)C1` (stereo not drawn), the cell number change is -6.69%.
As for `Cc1cc(OCC(=O)OCC(=O)N(C)C2CCS(=O)(=O)C2)ccc1Cl` (stereo not drawn), the cell number change was 10.8%.
For the molecule `CCN(C(=O)CSc1nncn1-c1ccccc1)c1c(N)n(Cc2ccccc2)c(=O)[nH]c1=O`, the AC50 under setting [1] is 0.82 µM [rising, full curve, poor fit].
Consider `Cc1cc(NC(=O)CCC(=O)N(CC(=O)NC2CCCC2)c2cccc(F)c2)no1`, for which the cell number change is -10%. Under setting [1], the AC50 was 6.51 µM [rising, partial curve].
As for `O=c1[nH]cc(COCC(F)CCl)c(=O)[nH]1` (stereo not drawn), the cell number change was determined as 0.106%. The AC50 under setting [1] was 0.164 µM [rising, full curve, poor fit].
Turning to `Cc1cc(C)cc(NC(=O)Nc2ccc3c(c2)N(C)C(=O)CS3)c1`, the cell number change was 14.4%.
For `CCn1cc(C(=O)NCCCN(CC(C)C)CC(C)C)c(=O)c2cc(S(=O)(=O)N(C)C3CCCCC3)ccc21`, the cell number change is 5.6%. Also, the AC50 under setting [1] is 29.1 µM [rising, single point].
For `CCOC(=O)c1cccc(NS(=O)(=O)c2cnc[nH]2)c1`, the cell number change was -1.28%. Further, the AC50 under setting [1] is 29.1 µM [falling, single point].
Take `CCN(c1ccccc1)S(=O)(=O)c1ccc(Cl)c(NC(=O)COC(=O)c2ccc[nH]c2=O)c1`: the cell number change is 22.6%. Further, the AC50 under setting [2] was 3.66 µM [rising, full curve, poor fit]. In addition, the AC50 under setting [1] was 0.291 µM [rising, full curve, poor fit].
With `CC(=O)Nc1ccc(NC(=O)C2CC(=O)N=C(N)S2)cc1` (stereo not drawn), the cell number change was -6.73%. In addition, under setting [1], the AC50 was 0.103 µM [rising, full curve, poor fit].
With `C=CCn1cc(/C=N/Nc2nc3ccccc3[nH]2)c2ccccc21`, the cell number change was -42.1%. Further, the AC50 under setting [2] was 20.6 µM [falling, single point]. The AC50 under setting [1] was 18.4 µM [falling, single point].
Regarding `Cc1ccc(C)c(N(C(=O)c2csnn2)C(C(=O)NC2CCCC2)c2cccnc2)c1` (stereo not drawn), the cell number change was 13.3%. Besides, the AC50 under setting [1] is 0.259 µM [rising, partial curve, poor fit].
In the case of `COc1ccc(NC(=O)CN(c2ccccc2F)S(=O)(=O)c2ccc(C)cc2)c(OC)c1`, the cell number change came out at 49.2%. Under setting [2], the AC50 was 18.4 µM [rising, single point].
As to `C[C@H]1CCC(=O)N([C@H](CC#N)Cc2ccccc2)CC1`, the cell number change was found to be 25.6%. The AC50 under setting [2] was 0.291 µM [rising, partial curve, poor fit].
Consider `Cc1nc(NCc2ccco2)nc2c1C(=O)CC(C)C2` (stereo not drawn), for which the cell number change is 8.44%. For the same molecule, the AC50 under setting [1] was 29.1 µM [rising, single point].
Turning to `O=C(N/N=C/c1sc(N2CCOCC2)nc1-c1ccccc1)c1ccccc1Cl`, the cell number change was -20.3%.
For the molecule `Cc1ccc(NC(=O)COC(=O)Cn2ccc(C(F)(F)F)n2)cc1Cl`, the cell number change was -32.8%. The AC50 under setting [2] is 29.1 µM [falling, single point]. For the same molecule, the AC50 under setting [1] is 14.6 µM [falling, partial curve, poor fit].
As to `CCOC(=O)CNC(=O)CSc1ncnc2c1cnn2-c1ccccc1`, the cell number change stood at 66.6%. Besides, the AC50 under setting [2] is 13 µM [rising, partial curve]. Further, under setting [1], the AC50 was 2.31 µM [falling, partial curve].
Turning to `CCCC(=O)N=C1SC2CS(=O)(=O)CC2N1c1ccc(-c2nc3ccc(C)cc3s2)cc1` (stereo not drawn), the cell number change is -18.2%. Besides, the AC50 under setting [1] was 1.3 µM [falling, partial curve].
Regarding `CN1CCN(C(=O)c2ccc(N(Cc3ccc(Cl)cc3)S(C)(=O)=O)cc2)CC1`, the cell number change is 20.4%. In addition, the AC50 under setting [1] was 16.4 µM [rising, single point].
`CCN(CC)C(=O)CSC1=Nc2ccccc2C2=NC(c3ccccc3)C(=O)N12` (stereo not drawn): the cell number change worked out at 59%. The AC50 under setting [2] was 20.6 µM [rising, single point].
Consider `COc1cc(NC(=O)CCc2nnc3ccc(NCc4ccco4)nn23)cc(OC)c1`, for which the cell number change is -18%. For the same molecule, the AC50 under setting [1] is 29.1 µM [falling, single point].
Consider `O=S(=O)(c1ccccc1F)N1CCC(Oc2ccc(-n3cnnn3)cc2)CC1`, for which the cell number change was -18.2%.
On to `O=c1oc(-c2ccccc2NS(=O)(=O)c2ccc3ccccc3c2)nc2ccccc12`, for which the cell number change turned out to be 3.17%. Besides, the AC50 under setting [1] was 0.411 µM [rising, full curve, poor fit].
In the case of `CCC1=C(OC(=O)N(CC)CC)N2C(=O)OC(=NCCc3c[nH]c4ccccc34)[C@]2(Cc2ccccc2)[C@H]2C1=CC[C@H]1C(=O)NC(=O)[C@H]12`, the cell number change is -29.9%. Under setting [1], the AC50 is 7.31 µM [falling, partial curve, poor fit].
As to `CC(=O)OC(C(=O)Nc1nccs1)c1ccccc1` (stereo not drawn), the cell number change is 10.6%. Moreover, the AC50 under setting [1] is 29.1 µM [rising, single point].
For `COc1ccc(S(=O)(=O)N2CCC(C(N)=O)CC2)cc1C(=O)N1CCCCCC1`, the cell number change is 16.7%.
`O=C1CC(N2CCN(C/C=C/c3ccccc3)CC2)C(=O)N1CCc1ccccc1` (stereo not drawn): the AC50 under setting [1] was 20.6 µM [falling, partial curve, poor fit].
Regarding `CC(C)c1cc(C(C)C)n2nc(N)nc2n1`, the cell number change is -13.1%. Besides, under setting [1], the AC50 is 0.00461 µM [falling, full curve, poor fit].
On to `Cc1ccc(NC(=O)CN(C)C(=O)COC(=O)CCS(=O)(=O)c2ccc(C)cc2)cc1`, for which the cell number change is -8.91%. In addition, the AC50 under setting [1] is 29.1 µM [falling, single point].
Turning to `O=C(OC1CCOC1=O)c1ccc(CO)cc1` (stereo not drawn), the AC50 under setting [1] was 6.51 µM [falling, single point].
Regarding `CCOC(=O)c1cccc(OC(=O)CCNC(=O)c2ccc(Cl)cc2)c1`, the cell number change is 21.7%. The AC50 under setting [1] is 36.6 µM [rising, partial curve, poor fit].
Take `O=C(CN1C(=O)S/C(=C/c2ccncc2)C1=O)N1CCOCC1`: the cell number change was -0.647%. In addition, the AC50 under setting [1] is 1.3 µM [rising, partial curve, poor fit].
As to `CCC(C)(C)n1nnnc1C(c1cc2cc(C)ccc2[nH]c1=O)N1CCCC1` (stereo not drawn), the cell number change was found to be 162%. Moreover, the AC50 under setting [2] was 16.4 µM [rising, partial curve]. Further, under setting [1], the AC50 was 6.51 µM [rising, single point].
Take `O=C(CC1NC(=O)NC1=O)Nc1ccc(Cl)cc1` (stereo not drawn): the cell number change was 12.9%. Also, the AC50 under setting [1] was 0.0058 µM [rising, full curve, poor fit].
Regarding `O=C(O)CNC(=S)N(Cc1ccccc1)Cc1cccnc1`, the cell number change is -7.68%. The AC50 under setting [1] was 0.13 µM [falling, full curve].
For `Cc1cccc(NC(=O)CN2C(=O)CNC2=O)c1`, the cell number change is 9.21%. Besides, under setting [1], the AC50 was 20.6 µM [falling, single point].
Consider `COc1ccccc1CNC(=O)c1ccc(S(=O)(=O)N(C)c2ccccc2)cc1`, for which the cell number change came to 106%. Besides, the AC50 under setting [2] was 5.17 µM [rising, full curve].
As to `Cc1cc(NS(=O)(=O)c2ccc(NC(=O)NC(C)(C(F)(F)F)C(F)(F)F)cc2)no1`, the cell number change was -13.9%. Besides, the AC50 under setting [1] is 3.26 µM [falling, partial curve, poor fit].
Turning to `O=S(=O)(Nc1ccccc1)c1ccc(-c2cnc(C3CC3)o2)cc1`, the cell number change is -67.9%. Further, under setting [2], the AC50 is 23.1 µM [falling, single point].
With `COc1ccc(-c2nc(-c3ccccn3)no2)cc1`, the cell number change was 21.8%. For the same molecule, the concentration at half-maximal activity (AC50) under setting [1] was 13 µM [rising, partial curve].
On to `COC(=O)[C@@]1(Cc2ccccc2)[C@H]2c3cc(C(=O)N4CCCC4)n(Cc4ccsc4Br)c3C[C@H]2CN1C(=O)c1ccccc1`, for which the cell number change is -38%. For the same molecule, the AC50 under setting [2] was 3.66 µM [falling, full curve, poor fit]. Moreover, the AC50 under setting [1] was 5.17 µM [falling, full curve, poor fit].
